Assay results from paper PMC6650482, “Tyrosine 51 residue of the syndecan-2 extracellular domain is involved in the interaction with and activation of pro-matrix metalloproteinase-7” (Scientific Reports, 2019).
These are yes or no findings as the source states them, for the method shown. For some of these results: Binding calls can cover weak binding; strength is not graded here.

By UniProt entry, the sequences of proteins in these tests, tags left out. Where a name states a change or a piece, a line headed by the entry shows the natural chain unless it says otherwise. Chains listed by the source or under a name are the forms on record and can include a tag or linker. Residues count along the entry.
GST-tagged N-terminal extracellular domain of syndecan-2 (S2E-N, amino acid residues 19-78) (P34741, residues 19-78): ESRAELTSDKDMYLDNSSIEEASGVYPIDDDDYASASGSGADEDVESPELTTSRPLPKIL
GST-tagged syndecan-2 extracellular domain with Tyr51 changed to Ala (Y51A) (P34741, form named): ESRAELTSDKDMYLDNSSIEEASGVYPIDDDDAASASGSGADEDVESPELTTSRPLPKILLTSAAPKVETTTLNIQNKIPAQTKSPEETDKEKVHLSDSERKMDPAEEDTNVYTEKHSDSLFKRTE
UniProt P09237: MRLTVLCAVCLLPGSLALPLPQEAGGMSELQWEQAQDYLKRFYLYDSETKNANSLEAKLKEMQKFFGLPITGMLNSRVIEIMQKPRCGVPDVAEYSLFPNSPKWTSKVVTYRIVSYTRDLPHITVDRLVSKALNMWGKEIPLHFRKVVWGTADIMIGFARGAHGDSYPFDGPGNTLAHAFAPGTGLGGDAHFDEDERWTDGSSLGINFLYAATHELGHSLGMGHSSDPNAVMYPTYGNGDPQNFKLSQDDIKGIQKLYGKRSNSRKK

T1: synthetic human syndecan-2 peptide (S2-P), extracellular domain residues 41-60 (human)
T1 sequence (peptide): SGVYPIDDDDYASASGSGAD


Assays:
[1] = molecular target: T1, synthetic human syndecan-2 peptide (S2-P), extracellular domain residues 41-60 (human); test: ELISA; plates coated with 600 ng S2-P; His-tagged MMP-7 pro-domains 500 ng/well, 2 h at 20 °C; anti-His tag antibody, IgG-HRP, TMB, A450; both purified
[2] = molecular target: GST-tagged N-terminal extracellular domain of syndecan-2 (S2E-N, amino acid residues 19-78) (human) (UniProt P34741); test: pull-down; purified GST-syndecan-2 proteins incubated with purified His-tagged MMP-7 pro-domain proteins (2 h at 4 °C where stated); materials bound to glutathione-agarose beads immunoblotted with anti-His tag antibody; both purified
[3] = molecular target: GST-tagged syndecan-2 extracellular domain with Tyr51 changed to Ala (Y51A) (human) (UniProt P34741); test: as above
[4] = molecular target: His-tagged MMP-7 pro-domain mutant lacking both linkers (ΔNC, residues 9-73) (human); test: NMR titration; 1H-15N HSQC of 15N-labelled ΔNC with S2-P up to molar ratio 1:15; 20 mM Na2HPO4 pH 6.0, 5 mM β-mercaptoethanol, 100 mM dodecylphosphocholine, 283 K; both purified

Molecule	binding [1]	binding [2]	other results
His-tagged MMP-7 pro-domain mutant lacking both linkers (ΔNC, residues 9-73) (human) (domain or fragment)	binds	–	–
His-tagged MMP-7 pro-domain mutant lacking the C-terminal linker (ΔC, residues 1-73) (human) (domain or fragment)	binds	–	–
His-tagged MMP-7 pro-domain mutant lacking the N-terminal linker (ΔN, residues 9-79) (human) (domain or fragment)	binds	–	–
His-tagged pro-domain of MMP-7 (His-PD) (from UniProt P09237) (domain or fragment)	–	binds	–
His-tagged α2 helix-loop-α3 helix protein fragment (α2–3) of the MMP-7 pro-domain (from UniProt P09237) (domain or fragment)	–	binds	binding [3]: no binding
SGVYPIDDDDYASASGSGAD (human syndecan-2 extracellular domain residues 41-60; also called S2-P peptide; source: synthetic peptide (Fmoc solid-phase, Anygen Inc.)) [synthetic human syndecan-2 peptide (S2-P), extracellular domain residues 41-60]	–	–	binding [4]: binds
